Experimental data: patent US11891397B1, “Pyrido[4′,3′:4,5]pyrrolo[3,2-c][1,7]naphthyridin-10-one compounds as CK2 inhibitors” (KING FAISAL UNIVERSITY, priority 2023, dated 2024)

Experiments:
Assay type in all cases: cell-based
PC3 (prostate) = assay: In vitro cytotoxic activity MTT assay, PC3; conditions: Homo sapiens, 96 hours exposure, read-out: IC50, 50% inhibition of cell proliferation
Procedure: (§1) Compounds 1-16 were screened for their in vitro cytotoxic activity utilizing a 3-(4,5-dimethyl-thiazol-2-yl)-2,5-diphenyltetrazolium bromide (MTT) assay against selected cancer human cell lines consisting of PC3 (prostate), HCT116 (colon), A375 (melanoma), H1299 (lung), MIAPaCa-2 (pancreas), HL60 (leukemia), MCF7 (breast), MDA-MB-231 (breast) (T. Mosmann, J. Immunol. Meth., 1983, 65, 55-63). The cells were cultured at 37° C. in RMPI1640 medium supplemented with 10% fetal bovine serum, 50 IU/mL penicillin, and 50 μg/mL streptomycin in a 5% CO2 incubator. All cells were sub-cultured 3 times/week by trypsinisation. Viable cells were seeded and allowed to adhere for 12 h before a test drug was added in 96-well plates at an initial density of 1.0×10^5 cells/mL. Tumour cell lines were separately exposed to various concentrations of the tested compounds followed by incubation at a temperature of 37° C. during 96 h inside a medium of fresh RMPI 1640. Cells were subsequently incubated at 37° C. using MTT at 0.5 mg/mL during 4 h. After removal of supernatant, formazan crystals were dissolved in isopropanol and the optical density was measured at 570 nm. CX-4945 was used as a positive control.

MDA-MB-231 (breast) = assay: In vitro cytotoxic activity MTT assay, MDA-MB-231; conditions: Homo sapiens, 96 hours exposure, read-out: IC50, 50% inhibition of cell proliferation
Procedure: as §1

MCF7 (breast) = assay: In vitro cytotoxic activity MTT assay, MCF7; conditions: Homo sapiens, 96 hours exposure, read-out: IC50, 50% inhibition of cell proliferation
Procedure: as §1

HCT116 (colon) = assay: In vitro cytotoxic activity MTT assay, HCT116; conditions: Homo sapiens, HCT-116, 96 hours exposure, read-out: IC50, 50% inhibition of cell proliferation
Procedure: as §1

H1299 (lung) = assay: In vitro cytotoxic activity MTT assay, H1299; conditions: Homo sapiens, NCI-H1299, 96 hours exposure, read-out: IC50, 50% inhibition of cell proliferation
Procedure: as §1

HL60 (leukemia) = assay: In vitro cytotoxic activity MTT assay, HL60; conditions: Homo sapiens, HL-60, 96 hours exposure, read-out: IC50, 50% inhibition of cell proliferation
Procedure: as §1

MIAPaCa-2 (pancreas) = assay: In vitro cytotoxic activity MTT assay, MIAPaCa-2; conditions: Homo sapiens, MIA PaCa-2, 96 hours exposure, read-out: IC50, 50% inhibition of cell proliferation
Procedure: as §1

A375 (melanoma) = assay: In vitro cytotoxic activity MTT assay, A375; conditions: Homo sapiens, A-375, 96 hours exposure, read-out: IC50, 50% inhibition of cell proliferation
Procedure: as §1

## O=C(O)c1ccc2c(c1)nc(Nc1cccc(Cl)c1)c1ccncc12 [CX-4945, reference compound]
PC3 (prostate)
  IC50: 2000 nM
MDA-MB-231 (breast)
  IC50: 6200 nM
MCF7 (breast)
  IC50: 9100 nM
HCT116 (colon)
  IC50: 2300 nM
H1299 (lung)
  IC50: 2300 nM
HL60 (leukemia)
  IC50: 3700 nM
MIAPaCa-2 (pancreas)
  IC50: 1000 nM
A375 (melanoma)
  IC50: 4100 nM
